# Results as given in PubChem BioAssay (EPA / NIEHS).
# Amino acid sequences for entries named in this document (tags omitted). A change or cut given only in a name is not applied to a line headed by its entry.
# UniProt O70528: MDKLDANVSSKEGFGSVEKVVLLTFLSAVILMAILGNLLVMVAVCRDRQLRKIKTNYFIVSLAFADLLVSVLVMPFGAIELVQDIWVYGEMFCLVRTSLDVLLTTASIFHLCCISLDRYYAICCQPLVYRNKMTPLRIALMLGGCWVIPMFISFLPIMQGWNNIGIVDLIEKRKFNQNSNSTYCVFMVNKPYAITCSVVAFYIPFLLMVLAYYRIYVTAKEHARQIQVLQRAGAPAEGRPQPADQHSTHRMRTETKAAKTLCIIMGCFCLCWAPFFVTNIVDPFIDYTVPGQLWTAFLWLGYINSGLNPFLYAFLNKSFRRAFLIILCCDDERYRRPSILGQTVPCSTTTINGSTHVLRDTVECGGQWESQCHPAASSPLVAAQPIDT
# UniProt P19327, whole entry, looked up: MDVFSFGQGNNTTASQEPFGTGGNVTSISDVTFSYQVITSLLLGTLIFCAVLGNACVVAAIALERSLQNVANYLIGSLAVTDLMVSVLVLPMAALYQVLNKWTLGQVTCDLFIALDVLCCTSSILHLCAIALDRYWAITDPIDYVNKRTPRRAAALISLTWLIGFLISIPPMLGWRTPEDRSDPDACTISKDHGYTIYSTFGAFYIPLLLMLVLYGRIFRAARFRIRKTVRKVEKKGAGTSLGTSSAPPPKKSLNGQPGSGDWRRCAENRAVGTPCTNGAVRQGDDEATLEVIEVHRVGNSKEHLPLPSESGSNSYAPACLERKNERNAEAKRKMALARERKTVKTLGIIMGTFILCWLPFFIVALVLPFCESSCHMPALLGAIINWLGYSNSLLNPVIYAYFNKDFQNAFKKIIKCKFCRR
# Inconclusive results, whose numbers are uncertain, are shown with a selection of clear calls. A potency beside an inconclusive call is a rough fit, not a confirmed value. Calls of active or inactive are those of the source. Rule for the calls: active = hit-call score of the fitted dose curve at least 0.9, where 1 is the maximum; inconclusive = response in the unintended direction; inactive = score below 0.9.
# Target: guinea pig Serotonin, 5-Hydroxytryptamine Receptor 4 (5HT4), HTR4 (gene 100135548) (UniProt O70528)
# Experiment: NVS_GPCR_g5HT4: NovaScreen (NVS) G Protein-Coupled Receptor Assay for guinea pig Serotonin, 5-Hydroxytryptamine Receptor 4 (5HT4) (AID 2283294)
# Procedure, shortened: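 Guinea pig striatal membranes; radioligand competitive displacement, filtration and scintillation counting after 1 h. Primary screen in duplicate at 25 uM; actives then tested in concentration series; loss of binding signal fitted relative to DMSO.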
Compound,AC50,outcome
CCOC(=O)CCC(=O)OCC,inconclusive: 46.6 µM,
Cc1nc(C)nc(N2C[C@@H](C)N(c3ccnc([C@@H](C)O)n3)[C@@H](C)C2)n1,,inactive
CCNc1ccccc1,inconclusive: 25 µM,
CCCCCCC(=O)OCC,,inactive
CCn1nc(C)c2c1C(=O)NCC(c1ccc(O)cc1)=N2,inconclusive: 25 µM,
COc1cc(C(=O)NC2CCN(C)CC2)ccc1Nc1ncc2c(n1)N(C1CCCC1)CC(F)(F)C(=O)N2C,active: 8.4 µM,
CCCOc1sc(C(=O)N2CCC(c3cc(CN)ccc3F)CC2)c(C)c1Br,active: 25.9 µM,
C[C@@H](Oc1ccc(CNC(=O)c2cccnc2Oc2ccc3c(c2)OCO3)c(F)c1)C(=O)O,,inactive
CCCCCCCCCCCC[N+](C)(C)C,active: 17.9 µM,
CC(=O)OCCC(C)C,inconclusive: 40.7 µM,

# Target: rat Serotonin, 5-Hydroxytryptamine Receptor (5HT), Non-Selective Binding, Htr1a (gene 24473) (UniProt P19327)
# Experiment: NVS_GPCR_r5HT_NonSelective: NovaScreen (NVS) G Protein-Coupled Receptor Assay for rat Serotonin, 5-Hydroxytryptamine Receptor (5HT), Non-Selective Binding (AID 2283295)
# Procedure, shortened: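 Radioligand displacement on rat cortical membranes, 1 h incubation, filter-based scintillation counting. Primary duplicates at 25 uM, actives retested in concentration series; loss of signal fitted against DMSO as baseline.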
Compound,outcome,AC50
CCCCc1nc2cccnc2n1Cc1ccc(-c2ccccc2-c2nnn[nH]2)cc1,inactive,
CCCCCCCCCCCCCO,,inconclusive: 0.172 µM
O=C1c2ccccc2C(=O)N1CCc1noc(-c2ccc(CN3CCCCCC3)s2)n1,inactive,
CCOC(=O)c1ccc(C2CCC(NC[C@H](O)COc3ccc(O)c(NS(C)(=O)=O)c3)CC2)cc1 (stereo partly specified),,inconclusive: 0.148 µM
c1ccc2ncccc2c1,,inconclusive: 0.137 µM
COc1cc(C(=O)NC2CCN(C)CC2)ccc1Nc1ncc2c(n1)N(C1CCCC1)CC(F)(F)C(=O)N2C,inactive,
CC(=O)C(C)=CC1C(C)=CCCC1(C)C (stereo unspecified),inactive,
Cc1occc1C(=O)Nc1ccc(C(=O)N2CCC(F)(F)/C(=C\C(=O)N3CCC(N4CCCCC4)CC3)c3ccccc32)cc1,inactive,
CC1=C(/C=C/C(C)=C/C=C/C(C)=C/CO)C(C)(C)CCC1,inactive,
CCc1nn(C2CCCCC2)c2cc(C3(C#N)CCC(C(=O)O)CC3)ccc12 (stereo unspecified),,inconclusive: 0.0446 µM

# Fetched by compound from the list above, 2 records:
Compound,outcome,AC50
CCCCc1nc2cccnc2n1Cc1ccc(-c2ccccc2-c2nnn[nH]2)cc1,inactive,
CC(=O)C(C)=CC1C(C)=CCCC1(C)C (stereo unspecified),inactive,

# System: rat Adrenergic, Alpha 1B Receptor (Adra1B), gene 24173
# Experiment: NVS_GPCR_rAdra1B: NovaScreen (NVS) G Protein-Coupled Receptor Assay for rat Adrenergic, Alpha 1B Receptor (Adra1B) (AID 2283297)
# Procedure, shortened: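 Rat liver membranes, radioligand displacement with filter-based scintillation detection, 1 h incubation. Primary screen in duplicate at 25 uM; actives retested in concentration series; activity relative to DMSO.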
Compound,AC50,outcome
CCOC(=O)CCC(=O)OCC,inconclusive: 6.17 µM,
COc1cc(S(=O)(=O)O)c(C)cc1N=Nc1c(O)ccc2cc(S(=O)(=O)O)ccc12,,inactive
Clc1nc(Cl)c(Cl)c(Cl)c1Cl,inconclusive: 0.617 µM,
CCn1nc(C)c2c1C(=O)NCC(c1ccc(O)cc1)=N2,inconclusive: 25 µM,
COc1cc(C(C)C)c2c(c1)S(=O)(=O)N(COc1cc(=O)n3cccc(OCCN4CCCCC4)c3n1)C2=O,active: 3.17 µM,
Nc1nc(N)c2nc(CNc3ccc(C(=O)N[C@@H](CCC(=O)O)C(=O)O)cc3)cnc2n1,inconclusive: 0.18 µM,
